The list shows a part of the results. Further columns of the screen follow, without active or inactive calls. The list favours compounds with an active or inconclusive main result. Potencies come from curve fits of mixed quality, noted in brackets.

A short description of this assay: qHTS Assay for Lipid Storage Modulators in Drosophila S3 Cells.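 On cell number change: cells counted by Cell Tracker Red CMTPX staining in the red channel.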 To be noted: BODIPY lipid droplet fluorescence, 18-24 h; for cell number change: measured here: cell count max response, cells fed with added oleic acid. A digest of the protocol: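 Drosophila S3 cells got compounds at several concentrations plus oleic acid (400 uM solution). Laser-scanning cytometry with 488 nm excitation read lipid droplets at 500-530 nm and cells at 575-640 nm. Percent activity was relative to 20 uM Triacsin C.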
(In general: In qHTS, concentration-response curves come from the screen itself.)

Setting [1] is: measured here: lipid fluorescence (Fed channel) AC50, cells fed with added oleic acid.
The mark [2] stands for this setting: measured here: cell number channel AC50, cells fed with added oleic acid.

Consider `COc1cccc(CNC(=O)C2CCCN(S(=O)(=O)c3c(C)noc3/C=C/N(C)C)C2)c1` (stereo not drawn), for which the cell number change is -3.07%. The AC50 (in general, the concentration giving half of the maximal activity seen) under setting [1] is 0.731 µM [rising, full curve].
For the molecule `O=C(NCCN1C(=O)S/C(=C\c2ccc(F)cc2)C1=O)c1cccc(S(=O)(=O)N2CCOCC2)c1`, the half-maximal activity concentration (AC50) under setting [1] is 7.31 µM [falling, partial curve, poor fit].
As to `Cc1ccc(NC(=O)CSCC(=O)N2CCOCC2)cc1`, the cell number change turned out to be 27.1%.
For the molecule `CCn1c(SC)nnc1-c1nn(-c2ccccc2)ccc1=O`, the cell number change was -30.2%. Moreover, under setting [2], the half-maximal activity concentration (AC50) is 0.058 µM [falling, full curve, poor fit].
For the molecule `O=C(NCC1(N2CCCCC2)CCCCC1)C1CC(=O)N(c2ccc3c(c2)OCCO3)C1` (stereo not drawn), the cell number change is -24.1%. Moreover, the AC50 under setting [2] was 4.11 µM [falling, full curve, poor fit]. The concentration at half-maximal activity (AC50) under setting [1] is 0.82 µM [falling, full curve, poor fit].
For the molecule `Cc1ccccc1NC(=O)CNC(=O)Cc1cccc2ccccc12`, the cell number change was -9.01%. Moreover, the half-maximal activity concentration (AC50) under setting [1] is 29.1 µM [falling, single point].
`O=C(Cc1ccc([N+](=O)[O-])cc1)N1CCN=C1SCc1ccccc1`: the cell number change was 9.58%. Also, the AC50 under setting [1] was 0.82 µM [rising, single point].
In the case of `Clc1ccc(-c2nc3ccccc3nc2-c2ccccc2)cc1`, the cell number change was 1.93%. For the same molecule, under setting [1], the half-maximal activity concentration (AC50) was 2.59 µM [rising, partial curve].
Consider `COc1ccc([C@H]2CC(=O)C=C(c3ccc(-c4ccccc4)cc3)C2)cc1OC`, for which the cell number change was -14.1%. Besides, under setting [1], the half-maximal activity concentration (AC50) is 7.31 µM [falling, partial curve].
Take `Cc1cc(C2(c3ccc(O)c(C)c3)C(=O)Nc3ccccc32)ccc1O`: the cell number change was -61.1%. In addition, the half-maximal activity concentration (AC50) under setting [2] was 13 µM [falling, partial curve]. Under setting [1], the AC50 is 16.4 µM [falling, single point].
As to `Cc1cc2nc(C(C)(C)C)cc(N)n2n1`, the cell number change was -1.29%. Under setting [2], the AC50 is 1.03 µM [falling, full curve]. Also, the concentration at half-maximal activity (AC50) under setting [1] was 0.82 µM [falling, full curve].
On to `O=C(CSc1nnc(NC(=O)c2ccco2)s1)NC1CCCC1`, for which the cell number change came out at 60.4%. In addition, the AC50 under setting [2] is 18.4 µM [rising, partial curve].
As for `O=C(N1CCOCC1)N1CCN(S(=O)(=O)c2cccc([N+](=O)[O-])c2)CC1`, the cell number change is -15.3%. Under setting [1], the AC50 is 0.651 µM [falling, partial curve, poor fit].
`O=C(CCSc1ccccc1)N1CCCC1`: the cell number change worked out at 33.2%. The half-maximal activity concentration (AC50) under setting [2] was 32.6 µM [rising, single point]. In addition, under setting [1], the AC50 is 3.66 µM [falling, full curve, poor fit].
Turning to `O=C(COc1ccccc1)NC1CCSc2ccccc21` (stereo not drawn), the cell number change was found to be 76.5%. For the same molecule, the AC50 under setting [2] was 29.1 µM [rising, single point].
Consider `CCOC(=O)c1c(N)sc2c1CCC(CC)C2` (stereo not drawn), for which the cell number change was 0.483%. The AC50 under setting [1] was 0.13 µM [falling, full curve, poor fit].
Turning to `Cc1ccc(N(C(=O)c2csnn2)C(C(=O)NC2CCCCC2)c2ccco2)cc1` (stereo not drawn), the cell number change came out at 3.85%.
`Cc1cc(NC(=O)C(C)Sc2nc(-c3ccccc3)cc(=O)[nH]2)no1` (stereo not drawn): the cell number change was -7.69%. The AC50 under setting [1] was 8.2 µM [rising, partial curve].
On to `CCCCNC(=O)c1cc(S(=O)(=O)N2CCCCC2)oc1C`, for which the cell number change is 52.1%. Besides, the AC50 under setting [2] is 29.1 µM [rising, single point]. Besides, under setting [1], the AC50 is 29.1 µM [rising, single point].
For `CN(CC(=O)Nc1ccc(Cl)c(C(F)(F)F)c1)C(=O)C1(c2ccccc2)CC1`, the cell number change turned out to be 20.8%. For the same molecule, under setting [2], the half-maximal activity concentration (AC50) is 0.82 µM [rising, full curve, poor fit]. Also, the AC50 under setting [1] was 2.31 µM [rising, partial curve].
Regarding `CCN(CC)S(=O)(=O)c1ccc2nc(COC(=O)c3n[nH]c4ccccc34)[nH]c2c1`, the cell number change was -8.8%. Further, the AC50 under setting [1] was 6.51 µM [rising, single point].
Turning to `CCn1c(C)nc2cc(C(=O)N/N=C/c3ccccc3)ccc21`, the cell number change is -8.45%. Besides, the half-maximal activity concentration (AC50) under setting [2] is 0.231 µM [rising, full curve].
As for `Cc1ccc(SCC(=O)Nc2ccc(N3CCOCC3)cc2)cc1`, under setting [1], the AC50 is 20.6 µM [falling, single point].
As to `O=C(NC1CCCCC1)C(c1ccc(O)c(O)c1)N(C(=O)Cn1nnc2ccccc21)c1cccc(O)c1` (stereo not drawn), the cell number change is -9.51%.
Consider `COc1cccc(Cn2ncc3c4sc(Br)cc4n(C)c3c2=O)c1`, for which the cell number change was 48.9%. Moreover, the concentration at half-maximal activity (AC50) under setting [2] is 36.6 µM [rising, single point]. Further, under setting [1], the half-maximal activity concentration (AC50) is 0.116 µM [rising, full curve, poor fit].
Turning to `Cc1cc(C)cc(Oc2nc3ccccn3c(=O)c2/C=C(\C#N)C(=O)NC2CCS(=O)(=O)C2)c1` (stereo not drawn), the cell number change is 3.1%. Further, the AC50 under setting [1] is 0.092 µM [rising, full curve, poor fit].
As to `CN1CCCc2cc3c(C(F)(F)F)cc(=O)oc3nc21`, under setting [2], the half-maximal activity concentration (AC50) was 6.51 µM [rising, single point].
`O=C(Nc1cccc(S(=O)(=O)N2CCOCC2)c1)C1CCCC1`: the cell number change was -6.27%. Also, the concentration at half-maximal activity (AC50) under setting [2] was 0.00517 µM [rising, full curve, poor fit]. The concentration at half-maximal activity (AC50) under setting [1] is 0.00461 µM [rising, full curve, poor fit].
As for `COc1ccc(N2CCN(S(=O)(=O)c3ccc(-c4cc(C)no4)s3)CC2)cc1`, the concentration at half-maximal activity (AC50) under setting [1] was 29.1 µM [falling, single point].
On to `CCOc1ccc2[nH]c(C)c(CN3CCN(C)CC3)c(=O)c2c1`, for which the cell number change is -22.9%. The AC50 under setting [2] is 0.164 µM [falling, full curve, poor fit].
Turning to `FC(F)(F)c1cccc(-c2cc3ccccc3nc2N2CCCC2)c1`, the cell number change is -54.1%. In addition, the half-maximal activity concentration (AC50) under setting [2] is 9.2 µM [falling, single point]. The AC50 under setting [1] is 29.1 µM [falling, single point].
As for `Cn1c(=O)c(=O)n(C)c2cc(N3CCCCC3)c(NS(=O)(=O)c3ccc(Br)cc3)cc21`, the cell number change is -25.1%. Also, the concentration at half-maximal activity (AC50) under setting [2] is 1.16 µM [falling, full curve]. Further, the AC50 under setting [1] was 6.51 µM [falling, partial curve].
Regarding `C/C=C/Cn1c(N2CCCCCC2)nc2c1c(=O)[nH]c(=O)n2C`, the cell number change is 18.2%. For the same molecule, under setting [2], the AC50 is 0.00461 µM [rising, full curve, poor fit].
`COc1ccc(NC(=O)COC(=O)COc2ccc(Br)cc2)cc1`: the cell number change was -66.1%. Under setting [2], the AC50 is 0.116 µM [falling, full curve, poor fit]. Also, the concentration at half-maximal activity (AC50) under setting [1] is 0.116 µM [falling, full curve, poor fit].
As for `CCOc1ccccc1C(=O)Nc1cc(=O)n(C)c(=O)n1C`, the cell number change is -16.5%.

Values taken from PubChem BioAssay AID2685 (National Center for Advancing Translational Sciences (NCATS), 2010).
